# These are yes or no findings as the source states them, for the method shown. Binding can be weak; no strength is given. Tags and fused reporters may be left off the sequences shown.
# By UniProt entry, the sequences of proteins in these tests, tags left out. Where a name states a change or a piece, a line headed by the entry shows the natural chain unless it says otherwise.
# UniProt P25694: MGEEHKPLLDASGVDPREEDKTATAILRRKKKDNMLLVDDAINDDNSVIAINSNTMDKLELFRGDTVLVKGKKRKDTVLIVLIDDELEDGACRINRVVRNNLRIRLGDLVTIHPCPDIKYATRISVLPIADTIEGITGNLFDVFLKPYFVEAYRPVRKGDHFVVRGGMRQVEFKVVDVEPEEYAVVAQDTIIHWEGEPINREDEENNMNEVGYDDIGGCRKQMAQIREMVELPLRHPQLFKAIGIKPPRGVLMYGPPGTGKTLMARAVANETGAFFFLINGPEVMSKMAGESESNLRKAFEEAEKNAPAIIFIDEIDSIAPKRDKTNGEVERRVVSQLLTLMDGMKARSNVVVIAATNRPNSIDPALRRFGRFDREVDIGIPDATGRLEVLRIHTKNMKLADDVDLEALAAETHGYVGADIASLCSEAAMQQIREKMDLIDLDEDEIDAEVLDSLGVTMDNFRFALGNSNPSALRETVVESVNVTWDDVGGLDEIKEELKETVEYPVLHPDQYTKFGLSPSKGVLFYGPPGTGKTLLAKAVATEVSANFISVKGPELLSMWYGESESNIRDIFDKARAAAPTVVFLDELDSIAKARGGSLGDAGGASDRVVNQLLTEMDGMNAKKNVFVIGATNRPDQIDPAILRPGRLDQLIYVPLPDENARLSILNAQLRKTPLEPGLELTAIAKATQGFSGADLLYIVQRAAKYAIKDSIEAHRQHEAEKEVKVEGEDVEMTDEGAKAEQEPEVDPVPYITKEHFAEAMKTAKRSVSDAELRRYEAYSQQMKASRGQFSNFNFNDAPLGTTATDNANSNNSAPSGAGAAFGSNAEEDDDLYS
# Target: T1, GST-Ufd2 (yeast (Saccharomyces cerevisiae)) (UniProt P54860)
# T1 sequence: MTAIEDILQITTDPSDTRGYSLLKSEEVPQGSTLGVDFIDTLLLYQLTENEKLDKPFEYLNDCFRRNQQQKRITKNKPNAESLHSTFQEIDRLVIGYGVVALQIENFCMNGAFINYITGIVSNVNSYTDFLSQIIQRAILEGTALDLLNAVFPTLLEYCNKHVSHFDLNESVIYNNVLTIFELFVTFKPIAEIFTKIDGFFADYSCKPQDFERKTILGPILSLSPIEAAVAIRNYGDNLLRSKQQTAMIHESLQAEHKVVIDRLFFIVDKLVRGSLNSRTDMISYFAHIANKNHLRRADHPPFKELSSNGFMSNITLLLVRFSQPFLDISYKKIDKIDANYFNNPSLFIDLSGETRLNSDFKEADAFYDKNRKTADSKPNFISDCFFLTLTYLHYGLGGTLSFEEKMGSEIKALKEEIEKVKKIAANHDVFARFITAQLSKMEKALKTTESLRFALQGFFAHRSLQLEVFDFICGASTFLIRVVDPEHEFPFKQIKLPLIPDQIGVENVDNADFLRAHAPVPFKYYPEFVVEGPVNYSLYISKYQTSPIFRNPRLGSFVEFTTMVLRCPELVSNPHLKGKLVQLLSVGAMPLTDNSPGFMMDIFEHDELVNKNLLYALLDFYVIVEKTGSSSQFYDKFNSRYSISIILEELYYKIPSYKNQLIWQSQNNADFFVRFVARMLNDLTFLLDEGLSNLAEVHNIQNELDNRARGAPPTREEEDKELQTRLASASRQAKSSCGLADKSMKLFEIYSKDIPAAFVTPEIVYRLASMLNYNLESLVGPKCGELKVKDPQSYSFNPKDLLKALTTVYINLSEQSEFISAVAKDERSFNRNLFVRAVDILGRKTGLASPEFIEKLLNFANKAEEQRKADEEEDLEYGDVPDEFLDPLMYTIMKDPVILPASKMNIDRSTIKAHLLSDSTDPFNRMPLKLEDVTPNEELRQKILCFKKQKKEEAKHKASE
# Test: pull-down; GST-Ufd2 (40 pmol) incubated with 20 pmol Cdc48 in 100 µL 20 mM Tris-HCl pH 7.4, 50 mM NaCl, 1 mM MgCl2, 5 mM β-mercaptoethanol, 20% glycerol, 10 min at 25 °C; then glutathione-sepharose 4B 30 min at room temperature; eluted with glutathione; immunoblot with anti-Cdc48 and anti-GST; both purified
substance,measurement,value
"Cdc48 without the last Ser835 residue (∆S, N-terminally His-tagged) (from UniProt P25694) (domain or fragment)",binding,binds

# From paper PMC5511170
